# Reference: PubChem BioAssay AID624297 (National Center for Advancing Translational Sciences (NCATS), 2012)
# Out of some 340,000 compounds screened, about 6,200 (1.8%) were called active. Inconclusive results, whose numbers are uncertain, are shown with a selection of clear calls. Calls come from the whole dose curve; as a rule, active = well fitted activation curve with a large enough effect; inconclusive = small, poorly fitted or top-dose-only effect; inactive = no such curve, though single readings can be large or run the other way. Potencies beside an inconclusive call are fits to weak or partial responses and may not hold up.
# Assay: A quantitative high throughput screen for small molecules that induce DNA re-replication in SW480 colon adenocarcinoma cells. Note: nearly all actives have a fitted effect of over 55% in size.
# Details: Hoechst DNA content imaging, 48 h; series mostly up to 46.1 µM
# How it was run: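 First, 250 cells per well were seeded. Next, compound or vehicle (23 nL) was pinned in, plates sat 48 hr at 37 C. Finally Hoechst was added for 40 min before fluorescence scanning.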
# Potency is the fitted concentration of half-maximal effect.
row,Structure (SMILES),Potency
1,C[C@H]1CN=C(N(C)C)N1CCc1cccc(F)c1,"inconclusive: 0.0231 µM [activator, full curve, poor fit]"
2,CCOC(=O)C1=C(C)NC(c2cccs2)C(=O)N1 (centres undefined),"inconclusive: 2.31 µM [activator, partial curve, poor fit]"
3,COc1ccc(OC)c(S(=O)(=O)Nc2cc3c(cc2N2CCCC2)n(C)c(=O)c(=O)n3C)c1,"inconclusive: 0.146 µM [activator, full curve]"
4,CN(C)S(=O)(=O)n1cc(/C=C(\NC(=O)c2ccccc2)C(=O)NCCCN2CCOCC2)c2ccccc21,"inconclusive: 23.1 µM [activator, single point]"
5,COc1ccc(N/N=C(/C(N)=O)C2=NC(C)(C)Cc3ccccc32)cc1,"inconclusive: 29.1 µM [activator, partial curve, poor fit]"
6,O=C(c1ccc(F)cc1)C(CN1CCOCC1)c1ccccc1 (centres undefined),"inconclusive: 4.61 µM [activator, single point]"
7,C=CC(=O)OCCOCCOCCOCCOC(=O)C=C,"inconclusive: 0.58 µM [activator, full curve, poor fit]"
8,CCOc1ccc(CN(CCC#N)C(=S)NC(=O)c2ccccc2)cc1,"inconclusive: 18.4 µM [activator, single point]"
9,CCC(C)NC(=O)CNS(=O)(=O)c1ccc(C)cc1 (centres undefined),inactive
10,Cc1cc(C(=O)NN=C2CCCCC2)c2ccccc2n1,"inconclusive: 13 µM [activator, partial curve]"
11,CN1C(=O)CC(Sc2ccccc2C(=O)O)C1=O (centres undefined),"inconclusive: 23.1 µM [activator, single point]"
12,O=C(/C=C(O)/C=C/c1ccc(O)cc1)/C=C/c1ccc(O)cc1,"inconclusive: 29.1 µM [activator, single point]"
13,COc1cccc(C(=O)C2CCCN(CC3=Cc4cc(OC)ccc4OC3)C2)c1 (centres undefined),"inconclusive: 29.1 µM [activator, single point]"
14,O=C(NCc1cccs1)Nc1cccc(Cl)c1,inactive
15,COc1cc2c(cc1OC)CN(C(=O)c1cc(=O)c3ccccc3o1)CC2,active: 13 µM
16,CCOc1cc(C2C(C(=O)OC)=CN(Cc3ccc(Cl)cc3)C=C2C(=O)OC)ccc1O,"inconclusive: 29.1 µM [activator, single point]"
17,CCOCCCn1c(SCC(=O)NCc2ccc3c(c2)OCO3)nc2ccccc2c1=O,inactive
18,CC(=O)Nc1ccc(Nc2nc(-c3ccccc3)nc3ccccc23)cc1,inactive
19,O=C(CN1C(=O)C2CC=CCC2C1=O)OCC(=O)c1ccc(Cl)c([N+](=O)[O-])c1 (centres undefined),"inconclusive: 18.4 µM [activator, single point]"
20,Cc1ccc2nc(-c3ccc(NC(=O)COC(=O)c4ccc([N+](=O)[O-])o4)cc3)sc2c1,"inconclusive: 18.4 µM [activator, partial curve, poor fit]"
21,Cc1nnsc1S(=O)c1ccc(Cl)cc1 (centres undefined),"inconclusive: 20.6 µM [activator, partial curve, poor fit]"
22,CC(C)c1onc(C(=O)NC2CCCC2)c1[N+](=O)[O-],"inconclusive: 29.1 µM [activator, single point]"
23,COc1ccc(NC(=O)CCCNC(=O)Cn2cnc3sc(C)c(C)c3c2=O)cc1Cl,"inconclusive: 18.4 µM [activator, single point]"

row,Structure (SMILES),Potency
1,O=C(c1ccccc1)c1coc2c1C(=O)c1ccccc1C2=O,inactive
2,c1csc(CN2CCOCC2)c1,"inconclusive: 4.61 µM [activator, single point]"
3,COc1cccc(CCN2CCC(CNS(=O)(=O)c3cc(-c4cc(C)no4)ccc3C)CC2)c1,"inconclusive: 11.6 µM [activator, partial curve, poor fit]"
4,COC(=O)c1ccc(COc2ccc(NC(C)=O)cc2)o1,"inconclusive: 0.58 µM [activator, full curve, poor fit]"
5,Cc1ccc(NCc2ccc(O)c3ncccc23)cc1,"inconclusive: 29.1 µM [activator, single point]"
6,NC1=NC(=O)/C(=C\c2cc([N+](=O)[O-])ccc2Cl)S1,active: 0.461 µM
7,CN(CCc1ccccc1)C(=O)c1ccc(NC(=O)Cc2ccc(NC(=O)C3CCCN(C(=O)C4CC4)C3)cc2)cc1 (centres undefined),active: 18.4 µM
8,COc1ccc(C)cc1Nc1n[n+](-c2ccccc2)c(-c2cccc(Cl)c2Cl)s1,"inconclusive: 29.1 µM [activator, single point]"
9,CN(C)C(CNC(=O)c1cccc(S(=O)(=O)NCc2ccccc2)c1)c1ccco1 (centres undefined),"inconclusive: 9.2 µM [activator, partial curve, poor fit]"
10,c1csc(-c2nn3c(C4CCCCC4)nnc3s2)c1,inactive
11,CSc1ccccc1OCc1cc(C(=O)N(C)Cc2nonc2C)no1,"inconclusive: 0.146 µM [activator, full curve, poor fit]"
12,CCOC(=O)N1CCC(c2cc(=O)n3[nH]c(-c4ccccc4)cc3n2)CC1,inactive
13,Cc1cc(C(=O)NCc2ccco2)sc1C,"inconclusive: 23.1 µM [activator, single point]"
14,CCOC(=O)c1cc2c(=O)n3cccc(C)c3nc2n(CCOC)c1=NC(C)=O,active: 5.8 µM
15,COc1ccc(CC(=O)NNC(=S)NCC2CC2)cc1OC,inactive
16,CCCn1c(SCC(=O)N2CCCC(C)C2)nnc1-c1cccnc1 (centres undefined),"inconclusive: 0.58 µM [activator, partial curve, poor fit]"
17,C=CCCC(=O)Nc1ccc(Br)cn1,active: 16.4 µM
18,Cc1ccc(-c2nnn(CC(=O)N(c3cnc4ccccc4c3)C(C(=O)NC3CCCC3)c3ccncc3)n2)o1 (centres undefined),"inconclusive: 16.4 µM [activator, partial curve, poor fit]"
19,CN(C)C(=O)N(CCCN1CCOCC1)Cc1cccc2ccccc12,inactive
20,Cc1ccc(C([O-])=C(C(=S)NCc2ccccc2)[n+]2cccc(CO)c2)cc1[N+](=O)[O-],inactive
21,CCOC(=O)c1c(N)c(C#N)c2n1CCCC2,inactive
22,Cc1ccc(NC(=O)CSc2nc(=O)n(Cc3ccncc3)c3c2CCC3)c(C)c1,inactive
23,CCCCc1cc(=O)oc2cc(C)cc(OCC(=O)Nc3cccnc3)c12,"inconclusive: 0.184 µM [activator, full curve]"

row,Structure (SMILES),Potency
1,CCC(O)(CC)C(=O)NN(C(=O)CCl)c1ccccc1,"inconclusive: 29.1 µM [activator, single point]"
2,O=c1c(Cl)c(N2CCCCC2)cnn1-c1nc2ccccc2[nH]1,inactive
3,CC1=NN(C(=O)Cc2ccc([N+](=O)[O-])cc2)C(O)(c2ccccc2)C1 (centres undefined),"inconclusive: 20.6 µM [activator, single point]"
4,Cc1cccc(C)c1NC(=O)CCCSc1nc2ccccc2s1,inactive
5,COc1ccccc1-c1cc(C(F)(F)F)nc(S(=O)(=O)CCCC(=O)Nc2cccnc2Cl)n1,"inconclusive: 2.59 µM [activator, single point]"
6,CCOC(=O)c1ccc(N(C(=O)CNC(=O)c2ccco2)C(C(=O)NCC2CCCO2)c2ccc(OC)c(OC)c2)cc1 (centres undefined),"inconclusive: 18.4 µM [activator, single point]"
7,O=C(CC1C(=O)N(c2ccccc2)C(=S)N1c1ccccc1)c1ccccc1 (centres undefined),"inconclusive: 23.1 µM [activator, partial curve, poor fit]"
8,CCOC(=O)Nc1ccc2c3c(cccc13)-c1ccccc1-2,active: 6.51 µM
9,COC(=O)C(C(C)=O)C1=C/C(=N\S(=O)(=O)c2ccc(C)cc2)c2ccccc2C1=O (centres undefined),"inconclusive: 35.5 µM [activator, single point]"
10,C[C@H](CO)N1C[C@H](C)[C@@H](CN(C)S(=O)(=O)c2ccccc2)Oc2c(NC(=O)Nc3ccccc3)cccc2C1=O,"inconclusive: 3.26 µM [activator, full curve, poor fit]"
11,CC(=O)c1cccc(NC(=O)C(Sc2ncnc3ccccc23)c2ccccc2)c1 (centres undefined),inactive
12,N#Cc1sc2nc(-c3cccs3)cc(-c3ccccc3)c2c1N,inactive
13,Cc1ccc(OCC(=O)c2cc(C)n(-c3cc(C)on3)c2C)c([N+](=O)[O-])n1,"inconclusive: 23.1 µM [activator, partial curve, poor fit]"
14,O=C(N/N=C/c1ccccc1O)C1CC(=O)N(c2ccc(F)cc2)C1 (centres undefined),"inconclusive: 6.51 µM [activator, single point]"
15,S=C1NCN(Cc2cccnc2)CN1c1cccc2ccccc12,"inconclusive: 14.6 µM [activator, single point]"
16,CCCn1c(C)cc(C(=O)CSc2nc3ccccc3c(=O)n2Cc2ccco2)c1C,"inconclusive: 7.31 µM [activator, partial curve]"
17,COC(=O)N/N=C/c1cn(CCOc2ccccc2OC)c2ccccc12,inactive
18,COc1ccccc1-n1cnc2cc(C(=O)NCCCN3CCOCC3)ccc21,inactive
19,CCNC(=O)Nc1nc2ccccc2s1,"inconclusive: 29.1 µM [activator, single point]"
20,O=C(NCc1ccccc1)C1=C[C@H](c2csc3ccccc23)C[C@H](OCc2ccc(CO)cc2)O1,inactive
21,CCOC(=O)c1cc(C#N)c(N2CCOCC2)nc1-c1ccccc1,"inconclusive: 14.6 µM [activator, single point]"
22,O=C(Cc1nc2ccccc2[nH]c1=O)c1ccc(Cl)cc1,"inconclusive: 3.66 µM [activator, full curve, poor fit]"
23,CCCNC(=O)C(Cc1ccc(F)cc1)NC(=O)c1ccccc1 (centres undefined),inactive

# A few values from above:
# In Potency, `CCC(O)(CC)C(=O)NN(C(=O)CCl)c1ccccc1` has inconclusive: 29.1 µM [activator, single point]
# In Potency, `O=C(Cc1nc2ccccc2[nH]c1=O)c1ccc(Cl)cc1` has inconclusive: 3.66 µM [activator, full curve, poor fit]
# In Potency, `CCOC(=O)c1ccc(N(C(=O)CNC(=O)c2ccco2)C(C(=O)NCC2CCCO2)c2ccc(OC)c(OC)c2)cc1` (centres undefined) has inconclusive: 18.4 µM [activator, single point]
# In Potency, `COC(=O)C(C(C)=O)C1=C/C(=N\S(=O)(=O)c2ccc(C)cc2)c2ccccc2C1=O` (centres undefined) has inconclusive: 35.5 µM [activator, single point]
# In Potency, `CCOC(=O)Nc1ccc2c3c(cccc13)-c1ccccc1-2` has active: 6.51 µM
